For four molecules, binding results are on record in PMC11658185, “Analysis of the quadruple lsu mutant reveals molecular determinants of the role of LSU proteins in sulfur assimilation in Arabidopsis” (The Plant Journal, 2024).

Sequences of proteins named here, by UniProt entry; tags and fusion partners are left off. A change or cut given only in a name is not applied to a line headed by its entry.
UniProt Q43870: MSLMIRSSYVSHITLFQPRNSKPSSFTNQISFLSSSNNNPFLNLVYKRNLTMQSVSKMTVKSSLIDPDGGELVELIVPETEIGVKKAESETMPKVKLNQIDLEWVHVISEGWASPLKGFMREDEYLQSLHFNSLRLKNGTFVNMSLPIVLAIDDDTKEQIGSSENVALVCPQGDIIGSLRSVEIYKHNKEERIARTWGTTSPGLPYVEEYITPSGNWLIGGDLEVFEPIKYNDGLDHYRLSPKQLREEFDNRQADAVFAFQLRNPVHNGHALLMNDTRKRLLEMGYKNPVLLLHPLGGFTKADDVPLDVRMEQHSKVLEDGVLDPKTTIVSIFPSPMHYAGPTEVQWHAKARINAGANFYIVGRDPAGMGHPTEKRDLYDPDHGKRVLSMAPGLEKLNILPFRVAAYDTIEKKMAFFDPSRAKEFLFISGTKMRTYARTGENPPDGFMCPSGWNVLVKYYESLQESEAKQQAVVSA
UniProt O23324: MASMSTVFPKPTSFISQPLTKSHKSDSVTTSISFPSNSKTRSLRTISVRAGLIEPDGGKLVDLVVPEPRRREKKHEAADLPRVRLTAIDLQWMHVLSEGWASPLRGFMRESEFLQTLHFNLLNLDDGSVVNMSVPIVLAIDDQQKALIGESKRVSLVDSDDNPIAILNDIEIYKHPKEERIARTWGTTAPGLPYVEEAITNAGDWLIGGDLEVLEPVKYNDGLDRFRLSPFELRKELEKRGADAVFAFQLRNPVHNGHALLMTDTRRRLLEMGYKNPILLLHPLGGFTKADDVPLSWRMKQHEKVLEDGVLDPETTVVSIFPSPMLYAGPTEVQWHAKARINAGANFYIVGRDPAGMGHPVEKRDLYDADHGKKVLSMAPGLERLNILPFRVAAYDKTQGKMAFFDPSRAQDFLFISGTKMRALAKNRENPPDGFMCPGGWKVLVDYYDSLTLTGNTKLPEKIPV
UniProt Q9S7D8: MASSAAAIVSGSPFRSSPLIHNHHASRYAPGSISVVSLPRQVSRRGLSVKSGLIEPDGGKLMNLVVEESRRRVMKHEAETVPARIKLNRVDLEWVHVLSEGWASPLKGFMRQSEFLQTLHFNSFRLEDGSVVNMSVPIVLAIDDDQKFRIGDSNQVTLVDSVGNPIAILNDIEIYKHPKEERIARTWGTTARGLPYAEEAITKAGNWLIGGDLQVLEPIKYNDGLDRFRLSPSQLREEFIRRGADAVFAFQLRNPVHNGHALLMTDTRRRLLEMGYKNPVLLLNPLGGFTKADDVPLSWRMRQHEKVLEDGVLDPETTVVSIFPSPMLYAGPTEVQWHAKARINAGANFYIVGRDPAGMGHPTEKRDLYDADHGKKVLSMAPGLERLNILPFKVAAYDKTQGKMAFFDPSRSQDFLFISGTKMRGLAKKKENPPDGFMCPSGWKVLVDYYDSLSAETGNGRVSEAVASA
UniProt Q9LZ66: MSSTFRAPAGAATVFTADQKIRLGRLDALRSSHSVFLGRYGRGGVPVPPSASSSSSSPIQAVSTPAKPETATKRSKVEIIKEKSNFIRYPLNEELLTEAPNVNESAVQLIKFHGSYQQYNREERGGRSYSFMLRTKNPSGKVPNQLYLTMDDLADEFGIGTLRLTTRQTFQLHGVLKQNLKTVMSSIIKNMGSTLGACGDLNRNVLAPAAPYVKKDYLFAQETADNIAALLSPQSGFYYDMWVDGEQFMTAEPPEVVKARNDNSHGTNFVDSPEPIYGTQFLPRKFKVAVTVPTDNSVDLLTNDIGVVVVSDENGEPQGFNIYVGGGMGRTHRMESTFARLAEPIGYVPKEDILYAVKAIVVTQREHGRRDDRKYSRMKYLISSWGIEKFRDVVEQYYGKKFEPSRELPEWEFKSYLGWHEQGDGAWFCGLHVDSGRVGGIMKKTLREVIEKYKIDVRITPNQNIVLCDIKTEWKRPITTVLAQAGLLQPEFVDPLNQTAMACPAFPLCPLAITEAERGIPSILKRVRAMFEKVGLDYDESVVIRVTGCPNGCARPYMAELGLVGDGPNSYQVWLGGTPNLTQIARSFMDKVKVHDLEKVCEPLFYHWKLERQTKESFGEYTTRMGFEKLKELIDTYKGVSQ

These are yes or no findings as the source states them, for the method shown. For some of these results: Binding can be weak; no strength is given.

Assay in all cases: two-hybrid; yeast two-hybrid, ORFs in pDEST-GAD or pDEST-GBK (GAL4 AD and BD fusions); the panel of enzymes and LSU proteins tested in both orientations; growth on selection media, plates 3 days at 30°C
The target in test [1] is ATP sulfurylase isoform ATPS2 (A. thaliana) (UniProt Q43870).
The target in test [2] is ATP sulfurylase isoform ATPS3 (A. thaliana) (UniProt O23324).
Test [3] concerns the target ATP sulfurylase isoform ATPS4 (A. thaliana) (UniProt Q9S7D8).
The target in test [4] is SiR protein with the deletion of the region binding the [4Fe-4S] cluster (A. thaliana) (UniProt Q9LZ66).

B1: LSU4 (RESPONSE TO LOW SULFUR 4) (protein, UniProt Q8L8S2 1-92)
chain: MGKGGNYVMVAASEVEELRQKNGEMEKAVEEMRKEMLQLWRRTQVAEEAEEHLCSQLAELEAESLDQARDYHTRIIFLTNQLSRFSSDSASP
As for B1, the binding entry is on record as “no binding” in test [1], “binds” in test [2] and “no binding” in test [3].

B2: LSU2 (RESPONSE TO LOW SULFUR 2) (protein, UniProt Q9FIR9 1-94)
chain: MGKGGNYVTVAASEVDELRRKNGEMEKAVEEMKKEMLQLWRRTQVAEEAEERLCSQLAELEAESLDQARDYHSRIIFLMNELSRLSSDSASASP
As for B2, the binding result in test [1] is given as “no binding”; in test [2], “binds”; in test [3], “no binding”.

B3: LSU3 (RESPONSE TO LOW SULFUR 3) (protein, UniProt Q9SCK2 1-97)
chain: MGKGGGYVTVAAEEVEELRRRNGELEREMEEMKKEMVQLWRRTVVAEEAEERLCSQLAELEVESLDQARDYHSRIVFLMDQISRLSSSSLEVVVTNS
As to B3, the values for the binding entry in test [1], in test [2] and in test [3] were “no binding”, “binds” and “no binding”, respectively.

B4: LSU1 (RESPONSE TO LOW SULFUR 1) (protein, UniProt Q9SCK1 1-94)
chain: MANRGGCVTVAAEEMDELRRRNIELSREVAEMKTEMIKLWQRTVVAEEAEEQLCSQLAELEVESLEQARDYHDRMLFLMDQISRLSSSSVVSSS
As to B4, the binding result was “no binding” in test [1], “binds” in test [2], “no binding” in test [3] and “no binding” in test [4].
